Source: PubChem BioAssay AID2685 (National Center for Advancing Translational Sciences (NCATS), 2010)
“And” between values parts separate entries of the source, which are not always exact repeats. Equal entries are not always repeated. This is one part of the list. Further columns of the screen follow, without active or inactive calls. The list favours compounds with an active or inconclusive main result. Words in brackets tell the shape of the fitted curve; partial curves, single points and poor fits give uncertain potencies.

Experiment: qHTS Assay for Lipid Storage Modulators in Drosophila S3 Cells;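 as to cell number change: cells counted by Cell Tracker Red CMTPX staining in the red channel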
Details: BODIPY lipid droplet fluorescence, 18-24 h; for cell number change: measured here: cell count max response, cells fed with added oleic acid
Summary of the method: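 Drosophila S3 cells loaded with oleic acid (400 uM, as added) and compounds at several concentrations; lipid droplets imaged by 488-nm laser-scanning cytometry, 500–530 nm intensity and object ratio to cell channel. Percent activity normalized to 20 uM Triacsin C.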

[1] = measured here: lipid fluorescence (Fed channel) AC50, cells fed with added oleic acid
[2] = measured here: cell number channel AC50, cells fed with added oleic acid

| SMILES | cell number change | AC50 [1] | AC50 [2] |
| --- | --- | --- | --- |
| O=c1[nH][nH]c(-c2ccccc2)c1C=Nc1ccc(F)cc1F | 30.6% | 32.6 µM [rising, single point] |  |
| O=S(=O)(CC(c1ccccc1)N1CCCCC1)c1ccc(Cl)cc1 (stereo not given) | -2.55% | 0.00461 µM [falling, full curve, poor fit] |  |
| CCNc1nc(Cl)nc(-c2cn(-c3ccccc3)c3ccccc23)n1 |  | 16.4 µM [falling, single point] | 0.164 µM [rising, full curve] |
| CCOC(=O)N1CCN(C(=O)CN(c2ccc(OCC)cc2)S(C)(=O)=O)CC1 | 21.8% |  |  |
| Cc1cn([C@H]2C=C[C@@H](CO)O2)c(=O)[nH]c1=O | -6.1% and -13.1% | 580 nM [rising, single point] and 3.66 µM [rising, partial curve] |  |
| CC(=O)c1c(C)[nH]c(C(=O)OCC(=O)N(CC(C)C)C2CCS(=O)(=O)C2)c1C (stereo not given) | 14% |  |  |
| CSCCCNC(=S)N1CCc2ccccc2C1 | -17.8% | 3.26 µM [falling, partial curve, poor fit] |  |
| Cc1ccc(N(C)S(=O)(=O)c2cccc(C(=O)NC3CC(C)(C)NC(C)(C)C3)c2)cc1 | 8.84% |  |  |
| COc1cccc(NS(=O)(=O)c2ccc(-c3coc(C)n3)cc2)c1 | -33.3% | 29.1 µM [falling, single point] | 16.4 µM [falling, single point] |
| CCCOc1ccc(NC(=O)CC2C(=O)OCC3CCCCN32)cc1 (stereo not given) | 2.28% | 0.0058 µM [rising, full curve, poor fit] |  |
| C1CN(CCN2CCOCC2)CCN1 | 15.2% |  |  |
| Cc1ccc(C)c(SCC(=O)NC(=O)Nc2ccc3c(c2)OCCO3)c1 | 25.4% | 23.1 µM [rising, single point] |  |
| CCn1cc(C(=O)OCC(=O)N(C)Cc2ccccc2)c(=O)c2ccc(C)nc21 | 24.4% |  |  |
| COc1cccc(-c2nn3c(-c4ccccn4)nnc3s2)c1 |  | 0.13 µM [rising, full curve] |  |
| CCCc1cc(C(=O)Nc2cccc3ccccc23)n(C)n1 | 4.5% | 1.03 µM [falling, full curve, poor fit] |  |
| Clc1cccc2c1Sc1ccccc1CC2N1CCNCC1 (stereo not given) | -68.4% | 29.1 µM [falling, single point] | 23.1 µM [falling, single point] |
| CC(C)N(C(=O)CSc1nnnn1C1CCCC1)C(C)C | -3.29% | 5.17 µM [falling, partial curve, poor fit] | 6.51 µM [falling, single point] |
| Cc1cc(=O)oc2c(C)c(OC(C)C(=O)NCCCN3CCCC3=O)ccc12 (stereo not given) | -11.4% | 6.51 µM [falling, single point] |  |
| O=S(=O)(c1ccc(Br)s1)N1CCN(c2ccccn2)CC1 | 37.8% |  | 23.1 µM [rising, single point] |
| COc1ccc(OC)c(Nc2nc(NCc3ccco3)nc(N)c2[N+](=O)[O-])c1 | -10.3% | 0.461 µM [falling, partial curve, poor fit] |  |
| COc1ccc(CCNC(=O)c2ccc3c(c2)N(Cc2ccc(C)cc2)CCS3)cc1OC | -4.25% |  |  |

Full records from above:
CCCc1cc(C(=O)Nc2cccc3ccccc23)n(C)n1 is listed with cell number change: 4.5%; AC50 [1]: 1.03 µM [falling, full curve, poor fit]
O=c1[nH][nH]c(-c2ccccc2)c1C=Nc1ccc(F)cc1F is listed with cell number change: 30.6%; AC50 [1]: 32.6 µM [rising, single point]

The list continues:

| SMILES | cell number change | AC50 [1] | AC50 [2] |
| --- | --- | --- | --- |
| CC1(C)C(=O)C2(CCCCC2)C(=O)OC1c1cccs1 (stereo not given) | -8.14% | 2.59 µM [falling, partial curve, poor fit] |  |
| Cc1ccccc1NC(=O)Cn1nc(C(=O)O)c2ccccc2c1=O | 11.8% |  |  |
| CCOc1ccc(C(=O)N2CCCC2C(=O)O)cc1 (stereo not given) | 20% | 0.0651 µM [rising, full curve, poor fit] |  |
| COc1cc(/C=C2/CC/C(=C/c3ccc(O)c(OC)c3)C2=O)ccc1O | -17.5% | 29.1 µM [falling, single point] |  |
| Cc1cccc(NC(=O)CCNS(=O)(=O)c2cccc3nsnc23)c1 | -14.5% | 1.16 µM [rising, full curve] |  |
| CC(=O)c1c(C)[nH]c(C(=O)NCc2ccccc2F)c1C | 10.4% |  |  |
| O=C(NC(=S)NCc1ccccc1)c1cccc(Cl)c1 | -2.75% | 3.66 µM [rising, full curve] |  |
| CCOc1ccc(C(=O)NCCCN2CCCC2=O)cc1 | 21.6% | 6.51 µM [falling, single point] |  |
| CCOC(=O)c1cc2c(ccn2C)n1CC(=O)N1CCN(c2ccc(F)cc2)CC1 | -46.6% | 3.66 µM [falling, full curve] | 4.11 µM [falling, full curve] |
| CC(C)=CC(=O)OCC(=O)NC1CCCc2ccccc21 (stereo not given) | 15.8% |  |  |
| Cc1ccccc1-c1nc2ccccc2c(=O)n1/N=C/c1ccccc1[N+](=O)[O-] | -27.2% |  |  |
| CC(=O)N1c2ccc(S(=O)(=O)N3CCCC(C(=O)Nc4cccc(F)c4)C3)cc2CC1C (stereo not given) | 22% |  |  |
| CCOC(=O)c1c(-c2ccccc2)oc2ccc(OCC(O)CN(C)C)cc12 (stereo not given) | 13.2% |  | 0.00517 µM [rising, full curve, poor fit] |
| CC(=C/c1ccco1)/C=N/NC(=O)CSc1nnc(SCc2ccc(C)cc2)s1 | 14.9% | 0.82 µM [falling, single point] | 0.651 µM [falling, full curve] |
| COc1ccc(C(=O)N/N=C/c2ccc(OC)c(COc3ccc(F)cc3F)c2)cc1 | 19.7% | 0.282 µM [falling, full curve] |  |
| CC(=O)NS(=O)(=O)c1ccc(N=NN2CCOCC2)cc1 | -30.5% | 3.26 µM [falling, full curve] | 23.1 µM [falling, partial curve, poor fit] |
| S=c1[nH]nc(-c2ccc(Br)cc2)n1-c1ccc(Br)cc1 | -29.8% | 29.1 µM [falling, single point] |  |
| COc1ccc(C(CNC(=O)c2ccco2)N2CCOCC2)cc1 (stereo not given) | 20.5% | 1.64 µM [falling, partial curve, poor fit] |  |
| Cc1ccc2c(C)c(C(=O)Nc3ccc(S(N)(=O)=O)cc3)oc2c1C | -10.1% |  |  |
| Cc1c(CNCCc2ccccc2Cl)c(C(=O)O)c(C)n1-c1ccccc1 | -0.709% |  | 2.06 µM [rising, partial curve, poor fit] |
